# Results: PubChem BioAssay AID624297 (National Center for Advancing Translational Sciences (NCATS), 2012)
# Among all 340,000 compounds or so, about 6,200 (1.8%) were called active. The inconclusive results got no clear call from the source; some entries with a clear call stand among them for comparison. The call rests on the fitted dose curve; in most records, active means well fitted activation curve with a large enough effect; inconclusive means small, poorly fitted or top-dose-only effect; inactive means no such curve, though single readings can be large or run the other way. Potencies beside an inconclusive call are fits to weak or partial responses and may not hold up.
# Assay: A quantitative high throughput screen for small molecules that induce DNA re-replication in SW480 colon adenocarcinoma cells. Further: nearly all actives have a fitted effect of over 55% in size. On re-replication activation: % of control where 0% means no effect.
# Conditions: Hoechst DNA content imaging, 48 h; re-replication activation: at 46.1 µM (top of the series) unless noted
# Outline: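 Readout is total intensity of Hoechst-stained nuclei, excited at 405 nm and collected at 500-530 nm. Compound treatment lasted 48 hr at 37 C in 5% CO2 before staining.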
# Potency means the concentration at half of the fitted maximal effect.
SMILES,Potency,re-replication activation
O=C(OC(c1ccc(NS(=O)(=O)c2ccccc2)cc1)(C(F)(F)F)C(F)(F)F)c1ccccc1,"inconclusive: 29.1 µM [activator, single point]",
Cc1cccc(NC(=O)CSc2nc(C)c(Cc3ccccc3)c(=O)[nH]2)c1,"inconclusive: 0.103 µM [activator, full curve, poor fit]",
COCCNC(=O)/C(C#N)=C/c1c(N2CCN(c3ccccc3)CC2)nc2c(C)cccn2c1=O,"inconclusive: 7.31 µM [activator, partial curve, poor fit]",
O=C1OCC/C1=C\c1ccccc1,inactive,
N#Cc1ccc(CSc2ccc(S(=O)(=O)N3CCCC3)cn2)cc1,,inconclusive: -49.9% [activator]
COc1cc(C2C3=C(CCCC3=O)OC3=C2C(=O)CCC3)ccc1OCC(=O)Nc1ccccc1,"inconclusive: 32.6 µM [activator, partial curve, poor fit]",
O=c1n(CC2CO2)c(=O)n(CC2CO2)c(=O)n1CC1CO1 (centres undefined),active: 9.2 µM,
O=C(NCCCc1ccccc1)C(=O)c1c[nH]c2ccccc12,"inconclusive: 29.1 µM [activator, single point]",
O=C(NNS(=O)(=O)c1ccc(F)cc1)c1ccccc1O,,inconclusive: 34.8% [activator]
O=C(N/N=C/c1ccccc1OCc1ccccc1Cl)c1cccnc1,"inconclusive: 18.4 µM [activator, single point]",
COc1ccc(C(=O)Nc2cccc3c2CCCC3)cc1,"inconclusive: 16.4 µM [activator, partial curve, poor fit]",
CC(=O)N(C)C1=C(N2CCOCC2)C(=O)c2ccccc2C1=O,"inconclusive: 0.651 µM [activator, full curve, poor fit]",
CCCCNC(=O)COC(=O)c1c2c(nc3ccccc13)/C(=C/c1cccs1)CC2,active: 5.17 µM,
CC(C)CN1CC(Br)C(=O)NC1=O (centres undefined),inactive,
Cc1ccc(-c2nc(C(Cl)Cl)c3ccccc3n2)cc1,"inconclusive: 2.91 µM [activator, full curve]",
Cn1c(=O)c2[nH]c(-c3ccc(S(=O)(=O)O)cc3)nc2n(C)c1=O,"inconclusive: 1.26 µM [activator, single point]",
COc1ccc(Cl)cc1NC(=S)N(CCCN1CCOCC1)Cc1cn(C)c2ccccc12,active: 23.1 µM,
Cc1ccccc1C(=O)Nc1cccc(C(=O)N/N=C/c2ccccn2)c1,"inconclusive: 15.8 µM [activator, single point]",
COc1ccc(C(=O)NC(=S)N2CCCCC2)cc1[N+](=O)[O-],inactive,

# Copied from the list.
# N#Cc1ccc(CSc2ccc(S(=O)(=O)N3CCCC3)cn2)cc1 – re-replication activation: inconclusive: -49.9% [activator]
# O=C(N/N=C/c1ccccc1OCc1ccccc1Cl)c1cccnc1 – Potency: inconclusive: 18.4 µM [activator, single point]
